Results as given in the supplement of paper PMC10849652.
The list shows a part of the results.

By UniProt entry, the sequences of proteins in these tests, tags left out. Where a name states a change or a piece, a line headed by the entry shows the natural chain unless it says otherwise.
UniProt P49458: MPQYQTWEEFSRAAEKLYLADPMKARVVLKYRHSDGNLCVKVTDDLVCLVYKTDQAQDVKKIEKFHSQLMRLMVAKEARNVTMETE
UniProt Q9BUA3: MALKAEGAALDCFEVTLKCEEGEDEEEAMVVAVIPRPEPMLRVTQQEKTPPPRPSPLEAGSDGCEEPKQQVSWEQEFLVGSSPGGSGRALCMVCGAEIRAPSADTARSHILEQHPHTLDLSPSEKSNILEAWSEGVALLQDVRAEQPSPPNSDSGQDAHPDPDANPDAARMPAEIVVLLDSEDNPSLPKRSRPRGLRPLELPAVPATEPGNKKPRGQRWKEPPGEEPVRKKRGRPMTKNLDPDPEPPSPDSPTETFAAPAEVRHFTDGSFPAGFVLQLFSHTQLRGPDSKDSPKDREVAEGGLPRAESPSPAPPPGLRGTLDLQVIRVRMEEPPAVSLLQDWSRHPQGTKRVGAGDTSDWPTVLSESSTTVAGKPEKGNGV
UniProt Q96JI7: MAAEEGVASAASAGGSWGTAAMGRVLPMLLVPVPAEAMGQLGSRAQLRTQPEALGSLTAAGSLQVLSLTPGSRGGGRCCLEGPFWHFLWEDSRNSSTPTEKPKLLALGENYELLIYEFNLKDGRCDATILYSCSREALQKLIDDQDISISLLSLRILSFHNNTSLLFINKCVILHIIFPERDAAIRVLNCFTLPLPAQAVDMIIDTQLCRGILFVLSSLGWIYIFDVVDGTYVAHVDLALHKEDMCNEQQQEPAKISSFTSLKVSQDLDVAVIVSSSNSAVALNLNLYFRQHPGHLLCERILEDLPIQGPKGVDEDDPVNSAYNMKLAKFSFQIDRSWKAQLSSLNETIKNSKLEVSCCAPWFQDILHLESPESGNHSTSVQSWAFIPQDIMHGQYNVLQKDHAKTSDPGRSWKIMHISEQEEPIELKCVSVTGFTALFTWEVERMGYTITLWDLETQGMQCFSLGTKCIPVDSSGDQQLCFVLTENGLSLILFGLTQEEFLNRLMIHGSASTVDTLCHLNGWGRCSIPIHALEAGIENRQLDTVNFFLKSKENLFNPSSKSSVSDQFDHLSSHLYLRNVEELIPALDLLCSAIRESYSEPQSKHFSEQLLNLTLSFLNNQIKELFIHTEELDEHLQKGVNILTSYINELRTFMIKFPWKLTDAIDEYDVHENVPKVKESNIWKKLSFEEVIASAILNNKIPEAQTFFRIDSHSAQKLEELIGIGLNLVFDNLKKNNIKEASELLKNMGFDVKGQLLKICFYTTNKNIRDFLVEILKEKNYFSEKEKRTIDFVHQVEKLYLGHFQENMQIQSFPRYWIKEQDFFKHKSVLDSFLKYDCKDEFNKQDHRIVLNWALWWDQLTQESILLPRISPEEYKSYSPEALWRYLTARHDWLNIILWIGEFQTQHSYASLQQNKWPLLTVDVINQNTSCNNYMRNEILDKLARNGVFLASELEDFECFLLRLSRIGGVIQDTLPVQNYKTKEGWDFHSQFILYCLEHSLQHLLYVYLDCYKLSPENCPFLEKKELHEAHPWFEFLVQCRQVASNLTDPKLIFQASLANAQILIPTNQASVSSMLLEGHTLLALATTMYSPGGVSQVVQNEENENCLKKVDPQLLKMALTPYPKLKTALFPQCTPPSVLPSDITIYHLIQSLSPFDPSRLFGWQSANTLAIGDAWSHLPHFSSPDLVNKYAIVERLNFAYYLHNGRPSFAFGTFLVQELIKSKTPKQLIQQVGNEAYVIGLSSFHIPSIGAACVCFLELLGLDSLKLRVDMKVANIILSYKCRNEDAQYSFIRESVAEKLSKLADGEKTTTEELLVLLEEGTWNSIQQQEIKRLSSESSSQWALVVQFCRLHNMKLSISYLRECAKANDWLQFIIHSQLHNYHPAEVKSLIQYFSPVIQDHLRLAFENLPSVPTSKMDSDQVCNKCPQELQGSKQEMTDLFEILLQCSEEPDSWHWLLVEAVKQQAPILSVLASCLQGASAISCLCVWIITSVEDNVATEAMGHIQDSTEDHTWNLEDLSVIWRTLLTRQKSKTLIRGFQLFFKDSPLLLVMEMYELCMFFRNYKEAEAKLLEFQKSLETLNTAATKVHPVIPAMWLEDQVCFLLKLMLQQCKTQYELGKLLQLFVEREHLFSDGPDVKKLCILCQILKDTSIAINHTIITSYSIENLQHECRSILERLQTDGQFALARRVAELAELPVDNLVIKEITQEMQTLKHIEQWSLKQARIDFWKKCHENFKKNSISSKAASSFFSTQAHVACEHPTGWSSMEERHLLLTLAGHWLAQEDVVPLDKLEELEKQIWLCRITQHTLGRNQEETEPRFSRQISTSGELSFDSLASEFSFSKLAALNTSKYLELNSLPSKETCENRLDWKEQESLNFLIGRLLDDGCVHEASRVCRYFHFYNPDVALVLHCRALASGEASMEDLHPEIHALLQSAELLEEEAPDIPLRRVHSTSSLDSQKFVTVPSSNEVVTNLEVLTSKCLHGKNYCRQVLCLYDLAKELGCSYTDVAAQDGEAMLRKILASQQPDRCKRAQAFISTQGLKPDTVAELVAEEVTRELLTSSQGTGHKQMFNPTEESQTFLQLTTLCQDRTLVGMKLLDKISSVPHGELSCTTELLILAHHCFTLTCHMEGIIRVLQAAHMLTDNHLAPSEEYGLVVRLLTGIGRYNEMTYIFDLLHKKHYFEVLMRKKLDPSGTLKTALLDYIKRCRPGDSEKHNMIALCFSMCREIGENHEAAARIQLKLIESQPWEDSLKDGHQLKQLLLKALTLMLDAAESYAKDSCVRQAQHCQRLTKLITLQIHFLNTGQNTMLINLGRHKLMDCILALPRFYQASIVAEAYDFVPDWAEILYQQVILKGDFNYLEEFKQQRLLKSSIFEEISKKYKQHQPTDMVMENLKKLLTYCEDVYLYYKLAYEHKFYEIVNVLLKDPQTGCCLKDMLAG
UniProt Q9UQ35: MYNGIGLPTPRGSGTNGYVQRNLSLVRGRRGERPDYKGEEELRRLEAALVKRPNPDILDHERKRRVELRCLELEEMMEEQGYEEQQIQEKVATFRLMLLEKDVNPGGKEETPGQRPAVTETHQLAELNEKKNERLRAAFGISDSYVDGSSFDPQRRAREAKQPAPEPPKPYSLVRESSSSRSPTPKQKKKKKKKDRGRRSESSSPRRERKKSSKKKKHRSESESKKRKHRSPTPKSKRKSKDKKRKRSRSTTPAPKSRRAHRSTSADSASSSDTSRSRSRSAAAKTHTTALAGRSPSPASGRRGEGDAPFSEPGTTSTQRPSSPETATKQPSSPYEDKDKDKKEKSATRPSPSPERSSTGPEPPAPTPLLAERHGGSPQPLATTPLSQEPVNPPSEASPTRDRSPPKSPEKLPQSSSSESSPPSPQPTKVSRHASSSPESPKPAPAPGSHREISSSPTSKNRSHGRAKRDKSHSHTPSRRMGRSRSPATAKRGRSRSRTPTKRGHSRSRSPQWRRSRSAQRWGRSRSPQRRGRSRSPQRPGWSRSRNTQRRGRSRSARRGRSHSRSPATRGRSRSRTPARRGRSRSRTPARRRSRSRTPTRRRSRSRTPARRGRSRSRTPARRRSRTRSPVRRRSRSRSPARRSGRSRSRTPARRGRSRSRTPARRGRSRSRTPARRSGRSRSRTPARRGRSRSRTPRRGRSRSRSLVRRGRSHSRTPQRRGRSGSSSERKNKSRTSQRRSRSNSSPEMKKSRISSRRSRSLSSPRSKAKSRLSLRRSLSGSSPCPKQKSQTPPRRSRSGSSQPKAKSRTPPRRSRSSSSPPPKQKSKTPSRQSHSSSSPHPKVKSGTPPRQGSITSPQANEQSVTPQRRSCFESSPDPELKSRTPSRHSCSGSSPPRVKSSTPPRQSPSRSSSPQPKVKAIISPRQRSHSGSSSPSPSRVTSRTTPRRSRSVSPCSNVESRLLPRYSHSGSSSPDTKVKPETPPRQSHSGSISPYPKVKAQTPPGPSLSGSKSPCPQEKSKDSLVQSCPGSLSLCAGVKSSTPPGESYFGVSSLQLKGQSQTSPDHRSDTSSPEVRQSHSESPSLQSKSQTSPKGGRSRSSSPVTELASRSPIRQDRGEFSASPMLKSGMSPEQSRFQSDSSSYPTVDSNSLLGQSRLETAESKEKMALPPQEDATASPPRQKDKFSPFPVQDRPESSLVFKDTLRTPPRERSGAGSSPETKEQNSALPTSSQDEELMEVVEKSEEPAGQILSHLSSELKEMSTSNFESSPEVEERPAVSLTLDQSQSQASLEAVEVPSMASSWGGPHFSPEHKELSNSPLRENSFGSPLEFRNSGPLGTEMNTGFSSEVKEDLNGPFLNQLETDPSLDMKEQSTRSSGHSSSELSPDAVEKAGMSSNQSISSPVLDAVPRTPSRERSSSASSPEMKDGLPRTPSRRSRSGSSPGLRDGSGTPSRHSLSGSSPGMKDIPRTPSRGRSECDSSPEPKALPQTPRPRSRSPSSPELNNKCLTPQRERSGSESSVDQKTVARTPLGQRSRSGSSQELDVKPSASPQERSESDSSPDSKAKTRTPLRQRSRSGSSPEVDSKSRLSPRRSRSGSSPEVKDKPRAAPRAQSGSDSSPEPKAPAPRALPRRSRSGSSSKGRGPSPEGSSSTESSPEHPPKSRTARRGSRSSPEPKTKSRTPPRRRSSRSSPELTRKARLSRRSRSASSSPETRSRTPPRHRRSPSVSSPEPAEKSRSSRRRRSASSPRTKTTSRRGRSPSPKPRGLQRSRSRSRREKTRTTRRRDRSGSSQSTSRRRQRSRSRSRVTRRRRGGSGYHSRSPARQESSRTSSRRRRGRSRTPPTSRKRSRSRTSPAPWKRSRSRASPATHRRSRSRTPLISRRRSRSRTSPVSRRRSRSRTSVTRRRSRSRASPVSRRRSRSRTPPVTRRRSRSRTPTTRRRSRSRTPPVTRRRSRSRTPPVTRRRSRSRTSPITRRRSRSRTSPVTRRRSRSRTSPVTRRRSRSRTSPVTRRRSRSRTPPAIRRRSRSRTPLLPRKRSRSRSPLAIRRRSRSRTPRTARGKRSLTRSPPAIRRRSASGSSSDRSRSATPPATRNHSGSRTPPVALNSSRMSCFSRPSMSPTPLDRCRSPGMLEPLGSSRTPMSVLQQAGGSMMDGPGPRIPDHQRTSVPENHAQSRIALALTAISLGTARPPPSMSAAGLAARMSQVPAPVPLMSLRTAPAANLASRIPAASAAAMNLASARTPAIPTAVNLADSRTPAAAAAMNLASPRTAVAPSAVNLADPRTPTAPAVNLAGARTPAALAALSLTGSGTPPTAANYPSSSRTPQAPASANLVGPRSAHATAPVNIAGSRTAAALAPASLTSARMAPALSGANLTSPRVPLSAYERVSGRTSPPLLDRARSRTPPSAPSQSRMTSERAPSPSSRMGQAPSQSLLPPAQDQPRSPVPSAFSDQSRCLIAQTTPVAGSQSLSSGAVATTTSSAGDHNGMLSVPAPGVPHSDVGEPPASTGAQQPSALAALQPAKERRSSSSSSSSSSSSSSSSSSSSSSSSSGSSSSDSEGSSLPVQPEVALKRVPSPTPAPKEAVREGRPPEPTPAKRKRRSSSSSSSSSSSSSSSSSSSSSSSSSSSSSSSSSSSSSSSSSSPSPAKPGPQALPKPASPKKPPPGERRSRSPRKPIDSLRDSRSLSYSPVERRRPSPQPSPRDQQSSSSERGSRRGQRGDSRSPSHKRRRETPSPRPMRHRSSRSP
UniProt Q8N9Q2: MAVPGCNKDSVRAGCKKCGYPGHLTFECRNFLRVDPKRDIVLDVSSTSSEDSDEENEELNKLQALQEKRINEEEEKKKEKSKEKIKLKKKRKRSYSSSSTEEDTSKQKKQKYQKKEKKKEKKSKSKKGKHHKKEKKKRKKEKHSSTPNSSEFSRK
UniProt Q16842: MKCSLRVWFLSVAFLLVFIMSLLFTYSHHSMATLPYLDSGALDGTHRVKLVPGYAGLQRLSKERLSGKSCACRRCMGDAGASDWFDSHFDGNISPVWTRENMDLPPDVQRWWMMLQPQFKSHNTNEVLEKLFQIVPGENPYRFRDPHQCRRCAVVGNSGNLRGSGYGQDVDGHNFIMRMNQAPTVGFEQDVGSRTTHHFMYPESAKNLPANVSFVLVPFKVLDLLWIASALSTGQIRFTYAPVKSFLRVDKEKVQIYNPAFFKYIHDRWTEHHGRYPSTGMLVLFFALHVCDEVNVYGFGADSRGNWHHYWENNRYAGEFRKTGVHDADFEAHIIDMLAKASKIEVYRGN
UniProt O95630, whole entry, looked up: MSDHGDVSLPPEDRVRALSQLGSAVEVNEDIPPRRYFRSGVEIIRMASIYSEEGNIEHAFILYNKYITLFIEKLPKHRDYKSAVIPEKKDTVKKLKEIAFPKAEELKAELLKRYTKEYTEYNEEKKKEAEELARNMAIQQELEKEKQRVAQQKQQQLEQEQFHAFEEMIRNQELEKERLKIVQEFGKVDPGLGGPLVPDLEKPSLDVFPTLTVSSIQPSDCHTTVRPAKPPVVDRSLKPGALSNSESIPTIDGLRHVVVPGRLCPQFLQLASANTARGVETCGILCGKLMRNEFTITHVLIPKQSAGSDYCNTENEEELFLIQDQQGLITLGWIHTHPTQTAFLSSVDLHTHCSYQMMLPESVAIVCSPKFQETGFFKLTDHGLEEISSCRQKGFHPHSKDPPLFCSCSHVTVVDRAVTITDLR

Columns and labels:
Assay in all cases: log2 fold change, soluble protein after heating vs DMSO (PISA); higher = thermal stabilisation; K562 cells, 10 uM, 30 min; active = over 0.2 and 3.5 SD of the protein, either way, in both replicates (recomputed)
[1] = compound: NC(=O)Nc1cc(-c2cccc(F)c2)sc1C(=O)N[C@H]1CCCNC1
Procedure, shortened: (§1)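 Values are thermal stability changes relative to control samples and are taken from duplicates. They are stated as log2 fold changes. Before quantification by TMTpro 16plex LC-MS/MS with equalised channel sums, K562 cells at 2×10^6 cells/mL were treated with 10 μM compound for 30 min, heated in aliquots for 3 min across 48°C-58°C, pooled, extracted in PBS with 0.5% NP-40 at 4°C, and centrifuged at 21,000xg for 90 min to give the soluble supernatant.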

[2] = compound: NC(=O)c1cnc(N[C@@H]2CCCC[C@@H]2N)nc1Nc1cccc(-n2nccn2)c1
Procedure, shortened: as §1

[3] = compound: NC1(c2ccc(-c3nc4ccn5c(=O)[nH]nc5c4cc3-c3ccccc3)cc2)CCC1
Procedure, shortened: as §1

[4] = compound: NCC(=O)Nc1ccc(-n2nc(C(F)(F)F)cc2-c2ccc3c(ccc4ccccc43)c2)cc1
Procedure, shortened: as §1

entinostat = compound: Nc1ccccc1NC(=O)c1ccc(CNC(=O)OCc2cccnc2)cc1 [entinostat]
Procedure, shortened: as §1

vorinostat = compound: O=C(CCCCCCC(=O)Nc1ccccc1)NO [vorinostat]
Procedure, shortened: as §1

citarinostat = compound: O=C(CCCCCCNC(=O)c1cnc(N(c2ccccc2)c2ccccc2Cl)nc1)NO [citarinostat]
Procedure, shortened: as §1

silmitasertib = compound: O=C(O)c1ccc2c(c1)nc(Nc1cccc(Cl)c1)c1ccncc12 [silmitasertib]
Procedure, shortened: as §1

[5] = compound: O=C1NC(=O)C(c2cnc3ccccn23)=C1c1cn2c3c(cc(F)cc13)CN(C(=O)N1CCCCC1)CC2
Procedure, shortened: as §1

[6] = compound: c1cc(OCCN2CCCCC2)cc(-c2n[nH]c3ccc(-c4nnc[nH]4)cc23)c1
Procedure, shortened: as §1

Measured: log2 fold change

SRP9 (UniProt P49458)
inactive: [1] 0.005 | [2] 0.044 | [3] 0.243 | [4] 0.12 | entinostat -0.101 | vorinostat -0.022 | citarinostat -0.067 | silmitasertib 0.141 | [5] 0.183 | [6] -0.187

SPINDOC (UniProt Q9BUA3)
inactive: [1] 0.09 | [2] 0.003 | [3] 0.014 | [4] -0.061 | entinostat -0.188 | vorinostat -0.014 | citarinostat -0.106 | silmitasertib -0.061 | [5] -0.102 | [6] 0.053

SPART (UniProt Q8N0X7)
inactive: [1] -0.032 | [2] -0.105 | [3] -0.053 | [4] 0.006 | entinostat 0.043 | vorinostat -0.032 | citarinostat 0.015 | silmitasertib 0.081 | [5] -0.024 | [6] 0.04

SSB (UniProt P05455)
inactive: [1] -0.018 | [2] -0.181 | [3] -0.01 | [4] -0.091 | entinostat 0.039 | vorinostat 0.085 | citarinostat 0.02 | silmitasertib -0.035 | [5] -0.089 | [6] -0.085

SSNA1 (UniProt O43805)
inactive: [1] 0.042 | [2] -0.098 | [3] -0.018 | [4] 0.006 | entinostat 0.027 | vorinostat 0.03 | citarinostat 0.075 | silmitasertib 0.005 | [5] 0.057 | [6] -0.007

SPTAN1 isoform 2 (UniProt Q13813)
inactive: [1] -0.023 | [2] -0.001 | [3] 0.012 | [4] -0.016 | entinostat -0.044 | vorinostat 0.004 | citarinostat -0.017 | silmitasertib 0.103 | [5] 0.017 | [6] 0.002

SPTBN1 (UniProt Q01082)
inactive: [1] -0.051 | [2] -0.04 | [3] -0.041 | [4] -0.016 | entinostat 0.011 | vorinostat 0.026 | citarinostat -0.009 | silmitasertib 0.127 | [5] 0.009 | [6] -0.007

SPC25 (UniProt Q9HBM1)
inactive: [1] -0.034 | [2] -0.008 | [3] -0.086 | [4] -0.073 | entinostat 0.003 | vorinostat 0.022 | citarinostat 0.119 | silmitasertib 0.059 | [5] -0.045 | [6] 0.017

STAM2 (UniProt O75886)
inactive: [1] -0.111 | [2] -0.136 | [3] -0.133 | [4] -0.101 | entinostat 0.012 | vorinostat 0.04 | citarinostat 0.026 | silmitasertib 0.049 | [5] -0.041 | [6] 0.064

SPG11 (UniProt Q96JI7)
inactive: [1] -0.395 | [2] -0.138 | [3] 0.145 | [4] -0.293 | entinostat -0.25 | vorinostat -0.638 | citarinostat -0.233 | silmitasertib 0.01 | [5] 0.041 | [6] -0.219

STIP1 isoform 2 (UniProt P31948)
inactive: [1] 0.05 | [2] -0.027 | [3] -0.02 | [4] -0.02 | entinostat 0.026 | vorinostat -0.011 | citarinostat 0.037 | silmitasertib -0.021 | [5] -0.037 | [6] -0.005

SRM (UniProt P19623)
inactive: [1] -0.03 | [2] -0.059 | [3] -0.146 | [4] -0.039 | entinostat -0.006 | vorinostat 0.004 | citarinostat 0.012 | silmitasertib -0.034 | [5] -0.027 | [6] -0.049

STAT1 (UniProt P42224)
inactive: [1] 0.119 | [2] -0.202 | [3] 0.162 | [4] 0.077 | entinostat 0.012 | vorinostat 0.046 | citarinostat -0.03 | silmitasertib 0.242 | [5] 0.251 | [6] -0.087

SRRM2 (UniProt Q9UQ35)
inactive: [1] -0.004 | [2] -0.055 | [3] 0.005 | [4] -0.036 | entinostat 0.025 | vorinostat 0.226 | citarinostat 0.071 | silmitasertib -0.141 | [5] -0.225 | [6] -0.25

STK11IP (UniProt Q8N1F8)
inactive: [1] 0.098 | [2] -0.412 | [3] -0.285 | [4] 0.086 | entinostat 0.046 | vorinostat -0.184 | citarinostat -0.032 | silmitasertib 0.217 | [5] 0.095 | [6] 0.016

SREK1IP1 (UniProt Q8N9Q2)
inactive: [1] -0.01 | [2] 0.076 | [3] -0.022 | [4] 0.061 | entinostat -0.027 | vorinostat 0.015 | citarinostat -0.139 | silmitasertib 0.073 | [5] 0.081 | [6] -0.242

SPTA1 (UniProt P02549)
inactive: [1] 0.023 | [2] -0.096 | [3] 0.016 | [4] 0.017 | entinostat 0.062 | vorinostat 0.061 | citarinostat 0.038 | silmitasertib 0.215 | [5] 0.164 | [6] -0.067

SRPRA (UniProt P08240)
inactive: [1] -0.03 | [2] 0.017 | [3] -0.049 | [4] -0.045 | entinostat 0.02 | vorinostat 0.033 | citarinostat 0 | silmitasertib 0.021 | [5] 0.008 | [6] 0.015

SPG7 (UniProt Q9UQ90)
inactive: [1] -0.047 | [2] -0.041 | [3] -0.067 | [4] 0.012 | entinostat 0.009 | vorinostat 0.02 | citarinostat 0.011 | silmitasertib 0.001 | [5] -0.03 | [6] -0.025

ST3GAL2 (UniProt Q16842)
inactive: [1] -0.066 | [2] 0.101 | [3] -0.04 | [4] 0.008 | entinostat -0.028 | vorinostat -0.013 | citarinostat 0.008 | silmitasertib -0.003 | [5] -0.016 | [6] -0.05

STK11 (UniProt Q15831)
inactive: [1] -0.035 | [2] 0.119 | [3] -0.022 | [4] 0.05 | entinostat -0.001 | vorinostat -0.057 | citarinostat 0.054 | silmitasertib -0.022 | [5] -0.056 | [6] -0.047

STAMBP (UniProt O95630)
inactive: [1] -0.067 | [2] -0.092 | [3] -0.077 | [4] -0.01 | entinostat 0.037 | vorinostat 0.02 | citarinostat 0.046 | silmitasertib 0.104 | [5] 0.005 | [6] 0.074

STAG2 (UniProt Q8N3U4)
inactive: [1] -0.024 | [2] -0.003 | [3] -0.039 | [4] -0.03 | entinostat 0.013 | vorinostat 0.076 | citarinostat 0.081 | silmitasertib -0.024 | [5] -0.065 | [6] -0.115

Fetched one by one from the entries so far (2):
STAMBP (UniProt O95630)
inactive: [1] -0.067 | [2] -0.092 | [3] -0.077 | [4] -0.01 | entinostat 0.037 | vorinostat 0.02 | citarinostat 0.046 | silmitasertib 0.104 | [5] 0.005 | [6] 0.074

STAG2 (UniProt Q8N3U4)
inactive: [1] -0.024 | [2] -0.003 | [3] -0.039 | [4] -0.03 | entinostat 0.013 | vorinostat 0.076 | citarinostat 0.081 | silmitasertib -0.024 | [5] -0.065 | [6] -0.115

Going on with the list.

SRXN1 (UniProt Q9BYN0)
inactive: [1] -0.013 | [2] -0.364 | [3] -0.024 | [4] -0.021 | entinostat -0.053 | vorinostat -0.24 | citarinostat -0.039 | silmitasertib -0.059 | [5] -0.111 | [6] 0.09

SPRY4 (UniProt Q9C004)
inactive: [1] 0.039 | [2] 0.042 | [3] 0.027 | [4] 0.03 | entinostat -0.011 | vorinostat -0.018 | citarinostat 0.045 | silmitasertib 0.086 | [5] -0.004 | [6] -0.032

SPAST (UniProt Q9UBP0)
inactive: [1] 0.027 | [2] -0.003 | [3] -0.12 | [4] -0.109 | entinostat 0.075 | vorinostat 0.033 | citarinostat 0.058 | silmitasertib 0.028 | [5] -0.035 | [6] -0.029

SSR1 (UniProt P43307)
inactive: [1] 0.002 | [2] -0.037 | [3] -0.028 | [4] -0.047 | entinostat -0.013 | vorinostat -0.062 | citarinostat 0.034 | silmitasertib -0.005 | [5] -0.051 | [6] -0.016
